# Values quoted from earlier work in patent publication US9114109B2, “Five-coordinate neuroglobin and use thereof as a blood substitute” (University of Pittsburgh—Of the Commonwealth System of …, priority 2009, dated 2015).
# Where two headings read alike, the source gives them in different places.
# Conditions: cited from earlier work
molecule,measurement,setting,value
"neuroglobin: heme containing, monomeric, 16.9 kDa protein; literature values of the background section (protein, listed as Homo sapiens) MERPEPELIRQSWRAVSRSPLEHGTVLFARLFALEPDLLPLFQYNCRQFSSPEDCLSSPEFLDHIRKVMLVIDAAVTNVEDLSSLEEYLASLGRKHRAVGVKLSSFSTVGESLLYMLEKCLGPAFTPATRAAWSQLYGAVVQAMSRGWDGE","distal histidine binding affinity to heme iron KHis (kon/koff, dimensionless)",after disulfide bond formation,280
same,"distal histidine binding affinity to heme iron KHis (kon/koff, dimensionless)",before disulfide bond formation,~3000
